Experimental data published in US5665704A, “Receptor specific atrial natriuretic peptides” (Genentech, Inc., priority 1995, dated 1997).
Not every detail of the peptide structures is certain; ends, links or a residue may be inferred. Bridge positions count the residues as written; N and C are the ends. Peptide text beside a SMILES is read from it.

How the values were obtained:
hNPR-A [1] = target: T1, hNPR-A (Homo sapiens, UniProt P16066); experiment: Binding affinity for hNPR-A (competitive displacement of I^125 labeled wild-type ANF)
T1 sequence (P16066 33-1061): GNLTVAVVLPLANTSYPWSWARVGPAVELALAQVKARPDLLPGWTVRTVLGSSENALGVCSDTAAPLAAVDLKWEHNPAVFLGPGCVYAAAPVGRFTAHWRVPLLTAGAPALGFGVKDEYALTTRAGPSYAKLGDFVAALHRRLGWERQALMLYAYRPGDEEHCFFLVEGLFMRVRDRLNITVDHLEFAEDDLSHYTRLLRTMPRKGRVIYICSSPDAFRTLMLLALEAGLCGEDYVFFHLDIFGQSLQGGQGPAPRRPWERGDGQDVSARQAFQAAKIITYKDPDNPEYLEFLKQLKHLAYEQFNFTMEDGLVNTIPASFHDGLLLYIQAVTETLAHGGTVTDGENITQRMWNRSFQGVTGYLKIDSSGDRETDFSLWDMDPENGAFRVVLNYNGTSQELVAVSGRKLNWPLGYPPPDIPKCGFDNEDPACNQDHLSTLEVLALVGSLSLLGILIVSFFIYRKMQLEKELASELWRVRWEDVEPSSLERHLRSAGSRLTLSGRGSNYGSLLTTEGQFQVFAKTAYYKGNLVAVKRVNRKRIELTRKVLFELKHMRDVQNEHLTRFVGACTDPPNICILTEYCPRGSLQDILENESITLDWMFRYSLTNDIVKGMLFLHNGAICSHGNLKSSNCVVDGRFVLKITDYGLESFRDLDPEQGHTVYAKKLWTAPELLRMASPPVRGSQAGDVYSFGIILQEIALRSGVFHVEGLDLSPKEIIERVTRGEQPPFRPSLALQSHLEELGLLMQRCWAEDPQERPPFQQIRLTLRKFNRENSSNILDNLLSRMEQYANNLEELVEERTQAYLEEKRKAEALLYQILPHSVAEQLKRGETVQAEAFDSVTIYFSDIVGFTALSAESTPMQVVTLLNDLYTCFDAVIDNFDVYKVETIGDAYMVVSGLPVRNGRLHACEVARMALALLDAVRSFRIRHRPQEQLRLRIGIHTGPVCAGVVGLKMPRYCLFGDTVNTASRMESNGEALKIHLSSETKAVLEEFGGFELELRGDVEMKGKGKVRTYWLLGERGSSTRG

hNPR-C = target: T2, hNPR-C (Homo sapiens, UniProt P17342); experiment: Binding affinity for clearance receptor hNPR-C
T2 sequence (P17342 27-541): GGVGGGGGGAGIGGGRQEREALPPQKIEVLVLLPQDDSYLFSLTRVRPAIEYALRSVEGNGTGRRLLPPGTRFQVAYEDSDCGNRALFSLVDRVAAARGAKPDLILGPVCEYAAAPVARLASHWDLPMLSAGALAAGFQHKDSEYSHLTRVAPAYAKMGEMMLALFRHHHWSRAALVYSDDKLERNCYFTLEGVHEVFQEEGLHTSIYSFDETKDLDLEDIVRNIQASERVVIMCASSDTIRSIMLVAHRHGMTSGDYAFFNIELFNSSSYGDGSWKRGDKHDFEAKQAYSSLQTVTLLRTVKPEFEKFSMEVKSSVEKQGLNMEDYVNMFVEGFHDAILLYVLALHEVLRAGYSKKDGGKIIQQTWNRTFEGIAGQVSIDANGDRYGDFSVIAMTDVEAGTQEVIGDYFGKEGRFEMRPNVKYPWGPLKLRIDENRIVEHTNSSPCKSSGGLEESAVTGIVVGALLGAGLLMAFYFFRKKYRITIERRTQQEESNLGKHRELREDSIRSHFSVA
Source text: For assay systems to measure binding of hANF and the compounds of this invention to hNPR-C see: Schank, D. B., et al., Biochem. Biophys. Res. Comm. 127:433-442 (1985); Scarborough, R. M., J. Biol. Chem. 261:12960-12964 and WO 90/01940.

hNPR-A [2] = target: T1, hNPR-A; conditions: 293 cells expressing hNPR-A; FIG. 4A, 4B

Structure (SMILES)	Displacement of bound I^125 labeled wild-type ANF from hNPR-A (hNPR-A [1]; FIG. 5)	Affinity for the clearance receptor hNPR-C (hNPR-C; FIG. 5)	Stimulation of cGMP production (guanyl cyclase activity) from hNPR-A (hNPR-A [2])	Effect of substitution on NPR-A binding (hNPR-A [1]; relative to wild type)	Reduction of NPR-C affinity (hNPR-C; relative to wild type)
CC[C@H](C)[C@@H]1NC(=O)[C@H](CO)NC(=O)[C@H](CC(=O)O)NC(=O)[C@H](CC(C)C)NC(=O)[C@H](CO)NC(=O)CNC(=O)[C@H]([C@@H](C)O)NC(=O)[C@H](Cc2ccccc2)NC(=O)[C@@H](NC(=O)[C@H](CO)NC(=O)[C@H](CO)NC(=O)[C@H](CCCNC(=N)N)NC(=O)[C@H](CC(=O)O)NC(=O)[C@H](CC(C)C)NC(=O)[C@@H](N)CO)CSSC[C@@H](C(=O)N[C@@H](CC(N)=O)C(=O)N[C@@H](CO)C(=O)N[C@@H](Cc2ccccc2)C(=O)N[C@@H](CCCNC(=N)N)C(=O)N[C@@H](Cc2ccc(O)cc2)C(=O)O)NC(=O)CNC(=O)[C@H](CC(C)C)NC(=O)CNC(=O)[C@H](CO)NC(=O)[C@H](CCC(N)=O)NC(=O)[C@H](C)NC(=O)[C@H](CCCNC(=N)N)NC1=O (H-SLDRSSCFTGSLDSIRAQSGLGCNSFRY-OH; disulfide 7-23)	competitively displaced	no measurable affinity	equipotent to wild-type ANP		
CC[C@H](C)[C@@H]1NC(=O)[C@H](CCCNC(=N)N)NC(=O)[C@H](CC(=O)O)NC(=O)[C@H](CCSC)NC(=O)[C@H](CCCNC(=N)N)NC(=O)CNC(=O)CNC(=O)[C@H](Cc2ccccc2)NC(=O)[C@@H](NC(=O)[C@H](CO)NC(=O)[C@H](CO)NC(=O)[C@H](CCCNC(=N)N)NC(=O)[C@H](CCCNC(=N)N)NC(=O)[C@H](CC(C)C)NC(=O)[C@@H](N)CO)CSSC[C@@H](C(=O)N[C@@H](CC(N)=O)C(=O)N[C@@H](CO)C(=O)N[C@@H](Cc2ccccc2)C(=O)N[C@@H](CCCNC(=N)N)C(=O)N[C@@H](Cc2ccc(O)cc2)C(=O)O)NC(=O)CNC(=O)[C@H](CC(C)C)NC(=O)CNC(=O)[C@H](CO)NC(=O)[C@H](CCC(N)=O)NC(=O)[C@H](C)NC(=O)[C@H](CCCNC(=N)N)NC1=O [G16R]				negligible effect	about 150 fold
